Laboratory results taken from US9249378B2, “Aqueous cleaning compositions having enhanced properties” (Eastman Chemical Company, priority 2013, dated 2016).

Experiment: Wax scrub test with neat solvents on waxed vinyl floor tile
Settings: neat solvent; for Number of Strokes in Wax Test Shown in FIG. 5: strokes required to achieve the results shown in FIG. 5; for Removal of wax layer: after 1000 strokes, FIG. 5

Molecule | Number of Strokes in Wax Test Shown in FIG. 5 [strokes] | Removal of wax layer
CCCOCC(C)O (stereo not shown) [PnP, propylene glycol propyl ether] | 500 | –
CCCCOC(=O)CC(C)O (stereo not shown) [n-butyl 3-hydroxybutyrate] | 1000 | did not remove the wax layer
COC(C)COC(C)CO (stereo not shown) [DPM, dipropylene glycol methyl ether] | 1000 | –
dibasic ester | 1000 | did not remove the wax layer
CC(C)=O [Acetone, acetone] | 50 | –
C=C(C)[C@H]1CC=C(C)CC1 [d-limonene] | 1000 | did not remove the wax layer
CCCCOCC(C)O (stereo not shown) [PnB, propylene glycol butyl ether] | 500 | –
CC(O)CC(=O)OC(C)C (stereo not shown) [i-propyl 3-hydroxybutyrate, isopropyl 3-hydroxybutyrate] | 1000 | did not remove the wax layer
CCCCOCCO [Ethylene glycol monobutyl ether] | 900 | –

Some entries repeat one wording, which the source may state once for all of them.
